Experimental findings from the supplement of paper PMC12009310 are described below.

Structures can show the parent of a compound that is named as a salt. ± gives the standard deviation of the averaged measurements. The list shows a part of the results. Plates or batches differ in their baseline, so values are only roughly comparable.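 The cells are a mouse kidney inner medullary collecting duct line, silenced either for the ciliary gene Rpgrip1l or with a non-targeting control siRNA.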

For the experiment, the system named is mIMCD3. The experiment can be described thus: robust z score of cilia incidence (% cells with single cilium) vs plate controls; higher = more ciliated cells. Conditions: 10 µM; 48 h; siRNA: siScr.
`O=C(O)C1=CCCN(CCOC(c2ccc(C(F)(F)F)cc2)c2ccc(C(F)(F)F)cc2)C1` [CI 966 hydrochloride]: the “robust z score of cilia incidence” value worked out at 8.26 ± 4.6.

For the molecule `CN(C)CCN(C)CCc1ccc(Cl)c(Cl)c1` [BD 1047 dihydrobromide], the “robust z score of cilia incidence” value is -42.8 ± 8.

In the case of `O=C1NC(=O)c2c1c1c3ccccc3[nH]c1c1[nH]c3ccccc3c21` [Arcyriaflavin A], the “robust z score of cilia incidence” value was -4.55 ± 5.3.

As for `CNCCc1cnc[nH]1` [N α-Methylhistamine dihydrochloride], the “robust z score of cilia incidence” value was -0.884 ± 0.98.

`COc1cc2c(cc1O)C(CCc1ccc(Cl)cc1)N(C)CC2` (stereo not drawn): the “robust z score of cilia incidence” value was -19.7 ± 1.8.

Consider `CN1[C@@H]2CC[C@H]1CC(OC(=O)N1Cc3ccccc3NC1=O)C2` (stereo partly drawn) [DAU 5884 hydrochloride], for which the “robust z score of cilia incidence” value was -5.68 ± 1.5.

On to `N#Cc1ccc(N2CCN(C(=O)COc3ccc4[nH]cc(CCN)c4c3)CC2)cc1` [Donitriptan hydrochloride], for which the “robust z score of cilia incidence” value is -1.51 ± 2.5.

As to `O=C1Nc2cc(Cl)c(Cl)cc2N2CCNCC12` (stereo not drawn), the “robust z score of cilia incidence” value is 2.71 ± 4.5.

For `NC(=S)N/N=C/c1coc2ccccc2c1=O.[Cl][Cu][Cl]`, the “robust z score of cilia incidence” value was -7.82 ± 7.6.

On to `COc1ccc(CCN2CCC(Nc3nc4ccccc4n3Cc3ccc(F)cc3)CC2)cc1` [Astemizole], for which the “robust z score of cilia incidence” value is -24.4 ± 14.

For the molecule `CCN1C[C@]2(COC(=O)c3ccccc3N3C(=O)C[C@H](C)C3=O)CC[C@H](OC)[C@@]34[C@@H]5C[C@H]6[C@H](OC)[C@@H]5[C@](O)(C[C@@H]6OC)[C@](O)([C@@H](OC)[C@H]23)[C@@H]14` [Methyllycaconitine citrate], the “robust z score of cilia incidence” value was -0.0946 ± 0.012.

In the case of `CC(C)C[C@@H](N)C1(c2ccc(Cl)cc2)CCC1`, the “robust z score of cilia incidence” value amounted to 1.7 ± 0.19.

As for `Oc1cc2c(cc1O)[C@H]1c3ccccc3CN[C@@H]1CC2` (racemic) [Dihydrexidine hydrochloride], the “robust z score of cilia incidence” value was -15.4 ± 4.5.
